The values that follow are results of earlier work, collected in patent US20080275076A1, “Pharmaceutical Compositions Comprising Sirolimus and/or an Analogue Thereof” (priority 2005, published 2008).

The conditions of this data set: cited from earlier work.

`CO[C@H]1C[C@@H]2CC[C@@H](C)[C@@](O)(O2)C(=O)C(=O)N2CCCC[C@H]2C(=O)O[C@H]([C@H](C)C[C@@H]2CC[C@@H](O)[C@H](OC)C2)CC(=O)[C@H](C)/C=C(\C)[C@@H](O)[C@@H](OC)C(=O)[C@H](C)C[C@H](C)/C=C/C=C/C=C/1C` [Sirolimus]: for the setting “benzyl alcohol, chloroform, acetone and acetonitrile”, the “solubility in organic solvents” value was “freely soluble”. Besides, for the setting “water”, the solubility in water entry is “insoluble”.
